These are literature values, as cited in patent US10793559B2, “Chemical compounds” (GlaxoSmithKline Intellectual Property Development Limited, priority 2016, dated 2020).

By UniProt entry, the sequences of proteins in these tests, tags left out.
UniProt P68400, whole entry: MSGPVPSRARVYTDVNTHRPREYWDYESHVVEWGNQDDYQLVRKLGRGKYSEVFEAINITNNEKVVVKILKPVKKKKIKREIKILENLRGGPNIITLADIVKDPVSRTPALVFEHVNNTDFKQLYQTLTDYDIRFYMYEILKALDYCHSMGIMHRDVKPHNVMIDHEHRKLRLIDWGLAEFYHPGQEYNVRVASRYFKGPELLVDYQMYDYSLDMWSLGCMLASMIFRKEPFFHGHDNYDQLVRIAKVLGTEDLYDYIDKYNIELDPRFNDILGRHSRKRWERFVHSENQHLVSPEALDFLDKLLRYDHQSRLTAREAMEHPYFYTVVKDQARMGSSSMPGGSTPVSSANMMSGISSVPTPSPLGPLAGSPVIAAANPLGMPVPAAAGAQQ

Read-outs that look alike come from different tables or passages of the source.

The test system of one data set is Class I PI3-kinases. The conditions noted are these: cited from earlier work.
The next data set deals with CK2 protein kinase (Homo sapiens, UniProt P68400). The following applies: read-out: IC50 on CK2 protein kinase; cited from earlier work.

Turning to `O=c1cc(N2CCOCC2)oc2c(-c3ccccc3)cccc12` [LY294002], the IC50 is 15 to 20 µM in the data set with Class I PI3-kinases (Fruman et al. 1998, read-out: IC50 values against each of these PI3-kinases) and 5 to 10 µM at CK2 protein kinase.

For `COC[C@H]1OC(=O)c2coc3c2[C@@]1(C)C1=C(C3=O)[C@@H]2CCC(=O)[C@@]2(C)C[C@H]1OC(C)=O` [wortmannin], the concentration for half-maximal inhibition (IC50) with Class I PI3-kinases (read-out: IC50 values against each of the various Class I PI3-kinases) was 0.001 to 0.01 µM.
